# Assay results as given in the supplement of paper PMC8728848.
# The list shows a part of the results.
# B1: AT3G44510(29) (Arabidopsis thaliana), F4J341 (protein)
# chain: MEEHLQGRIKLHDGRYLAYKERGVPKDDAKFTIVLVHGFGSSKDMNFNVSQELVNEIGIYFVLYDRAGYGESDPNPKRSLKSEAYDVQELADGLEIGSRFYLIGISMGSYTVWSCLKHIPQRLAGVAMVAPVVNFRWPSIPKSLMPKDYRREVAKWSVWIANYFPGLLQWLVTQNMFSTTSMLEKNPVYFNDQDIEVLKHIKGFPMLTKEKLRERGVFGTLRSDFLVAFGDWDFDPADLPDPSLSGPEKGSSSVHIWQGYEDKVMPFQLQRCLCRKLPWIRYHEVPKGGHLIVHYDGICDAILKSLLLGEDLPMYKPKAVITEPA
# Assays:
# Assay in all cases: glycan array binding signal (z-score within array); higher = stronger binding
# Conditions in all cases: glycan notation: IUPAC condensed, linker removed
# GlcNAc(b1-3)GalNAc = target: GlcNAc(b1-3)GalNAc
# In short: (§1)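 The Consortium for Functional Glycomics database supplied 3228 glycan arrays, of which those lacking an available protein sequence were dropped. The binding signal, a within-array Z-score, was averaged across arrays of the same protein sequence and across linkers. Negative scores can be read as non-binding.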
# GlcNAc(b1-3)Man = target: GlcNAc(b1-3)Man
# In short: as §1
# [1] = target: GlcNAc(b1-3)[GlcNAc(b1-4)][GlcNAc(b1-6)]GlcNAc
# In short: as §1
# [2] = target: GlcNAc(b1-3)[GlcNAc(b1-6)]Gal(b1-4)GlcNAc
# In short: as §1
# [3] = target: GlcNAc(b1-3)[GlcNAc(b1-6)]GalNAc
# In short: as §1
# [4] = target: GlcNAc(b1-4)Gal(b1-4)GlcNAc
# In short: as §1
# GlcNAc(b1-4)GlcNAc = target: GlcNAc(b1-4)GlcNAc
# In short: as §1
# [5] = target: GlcNAc(b1-4)GlcNAc(b1-4)GlcNAc
# In short: as §1
# [6] = target: GlcNAc(b1-4)GlcNAc(b1-4)GlcNAc(b1-4)GlcNAc(b1-4)GlcNAc
# In short: as §1
# [7] = target: GlcNAc(b1-4)GlcNAc(b1-4)GlcNAc(b1-4)GlcNAc(b1-4)GlcNAc(b1-4)GlcNAc
# In short: as §1
# [8] = target: GlcNAc(b1-4)[GlcNAc(b1-6)]GalNAc
# In short: as §1
# [9] = target: GlcNAc(b1-6)Gal(b1-4)GlcNAc
# In short: as §1
# GlcNAc(b1-6)GalNAc = target: GlcNAc(b1-6)GalNAc
# In short: as §1
# [10] = target: GlcNAc6S(b1-3)Gal(b1-4)GlcNAc
# In short: as §1
# Kdn(a2-3)Gal(b1-3)GalNAc = target: Kdn(a2-3)Gal(b1-3)GalNAc
# In short: as §1
# Kdn(a2-3)Gal(b1-3)GlcNAc = target: Kdn(a2-3)Gal(b1-3)GlcNAc
# In short: as §1
# Kdn(a2-3)Gal(b1-4)Glc = target: Kdn(a2-3)Gal(b1-4)Glc
# In short: as §1
# Kdn(a2-3)Gal(b1-4)GlcNAc = target: Kdn(a2-3)Gal(b1-4)GlcNAc
# In short: as §1
# [11] = target: Kdn(a2-3)Gal(b1-4)[Fuc(a1-3)]GlcNAc
# In short: as §1
# Kdn(a2-6)Gal(b1-4)GlcNAc = target: Kdn(a2-6)Gal(b1-4)GlcNAc
# In short: as §1
# [12] = target: Man(a1-2)Man(a1-2)Man(a1-3)Man
# In short: as §1
# [13] = target: Man(a1-2)Man(a1-2)Man(a1-6)[Man(a1-3)]Man
# In short: as §1
# Man(a1-2)Man(a1-3)Man = target: Man(a1-2)Man(a1-3)Man
# In short: as §1
# [14] = target: Man(a1-2)Man(a1-3)[Man(a1-2)Man(a1-6)]Man
# In short: as §1
# [15] = target: Man(a1-2)Man(a1-3)[Man(a1-2)Man(a1-6)]Man(a1-6)[Man(a1-2)Man(a1-2)Man(a1-3)]Man
# In short: as §1
# [16] = target: Man(a1-2)Man(a1-3)[Man(a1-2)Man(a1-6)]Man(a1-6)[Man(a1-2)Man(a1-2)Man(a1-3)]Man(b1-4)GlcNAc(b1-4)GlcNAc
# In short: as §1
# [17] = target: Man(a1-2)Man(a1-3)[Man(a1-6)]Man(a1-6)[Man(a1-2)Man(a1-3)]Man(b1-4)GlcNAc(b1-4)GlcNAc
# In short: as §1
# [18] = target: Man(a1-2)Man(a1-6)[Man(a1-3)]Man(a1-6)[Man(a1-2)Man(a1-2)Man(a1-3)]Man
# In short: as §1
# [19] = target: Man(a1-2)Man(a1-6)[Man(a1-3)]Man(a1-6)[Man(a1-2)Man(a1-2)Man(a1-3)]Man(b1-4)GlcNAc(b1-4)GlcNAc
# In short: as §1
# Man(a1-3)[Man(a1-6)]Man = target: Man(a1-3)[Man(a1-6)]Man
# In short: as §1
# [20] = target: Man(a1-3)[Man(a1-6)]Man(a1-6)[Man(a1-2)Man(a1-3)]Man(b1-4)GlcNAc(b1-4)GlcNAc
# In short: as §1
# [21] = target: Man(a1-3)[Man(a1-6)]Man(a1-6)[Man(a1-3)]Man
# In short: as §1
# [22] = target: Man(a1-3)[Man(a1-6)]Man(a1-6)[Man(a1-3)]Man(b1-4)GlcNAc(b1-4)GlcNAc
# In short: as §1
# [23] = target: Man(a1-3)[Man(a1-6)]Man(b1-4)GlcNAc(b1-4)GlcNAc
# In short: as §1
# [24] = target: Man(a1-3)[Man(a1-6)]Man(b1-4)GlcNAc(b1-4)[Fuc(a1-6)]GlcNAc
# In short: as §1
# Man(a1-6)Man = target: Man(a1-6)Man
# In short: as §1
# Man(b1-4)GlcNAc = target: Man(b1-4)GlcNAc
# In short: as §1
# MurNAc(b1-4)GlcNAc = target: MurNAc(b1-4)GlcNAc
# In short: as §1
binder,measurement,setting,value
B1,glycan array binding signal (z-score),GlcNAc(b1-3)GalNAc,-0.697
same,glycan array binding signal (z-score),GlcNAc(b1-3)Man,-0.898
same,glycan array binding signal (z-score),[1],-1
same,glycan array binding signal (z-score),[2],0.341
same,glycan array binding signal (z-score),[3],0.015
same,glycan array binding signal (z-score),[4],-0.387
same,glycan array binding signal (z-score),GlcNAc(b1-4)GlcNAc,-0.957
same,glycan array binding signal (z-score),[5],-0.406
same,glycan array binding signal (z-score),[6],0.486
same,glycan array binding signal (z-score),[7],-0.257
same,glycan array binding signal (z-score),[8],-0.544
same,glycan array binding signal (z-score),[9],-0.408
same,glycan array binding signal (z-score),GlcNAc(b1-6)GalNAc,0.273
same,glycan array binding signal (z-score),[10],-0.216
same,glycan array binding signal (z-score),Kdn(a2-3)Gal(b1-3)GalNAc,-0.085
same,glycan array binding signal (z-score),Kdn(a2-3)Gal(b1-3)GlcNAc,-0.008
same,glycan array binding signal (z-score),Kdn(a2-3)Gal(b1-4)Glc,-0.233
same,glycan array binding signal (z-score),Kdn(a2-3)Gal(b1-4)GlcNAc,-0.701
same,glycan array binding signal (z-score),[11],-0.168
same,glycan array binding signal (z-score),Kdn(a2-6)Gal(b1-4)GlcNAc,-1.08
same,glycan array binding signal (z-score),[12],0.166
same,glycan array binding signal (z-score),[13],-0.15
same,glycan array binding signal (z-score),Man(a1-2)Man(a1-3)Man,-0.244
same,glycan array binding signal (z-score),[14],-0.23
same,glycan array binding signal (z-score),[15],-0.05
same,glycan array binding signal (z-score),[16],0.354
same,glycan array binding signal (z-score),[17],-0.325
same,glycan array binding signal (z-score),[18],-0.613
same,glycan array binding signal (z-score),[19],-0.348
same,glycan array binding signal (z-score),Man(a1-3)[Man(a1-6)]Man,-0.444
same,glycan array binding signal (z-score),[20],0.071
same,glycan array binding signal (z-score),[21],0.202
same,glycan array binding signal (z-score),[22],0.202
same,glycan array binding signal (z-score),[23],-0.041
same,glycan array binding signal (z-score),[24],-0.209
same,glycan array binding signal (z-score),Man(a1-6)Man,-0.552
same,glycan array binding signal (z-score),Man(b1-4)GlcNAc,0.16
same,glycan array binding signal (z-score),MurNAc(b1-4)GlcNAc,-0.652
